The test has as its target Flag-CDK5 purified from A549 cells (human) (UniProt Q00535). Put plainly: affinity purification with mass spectrometry; Flag-CDK5 purified from A549 cells; associated proteins analysed by mass spectrometry.

Results are given in words; binding and its absence hold for the method and conditions named. In cells and extracts the contact can be indirect. A yes stands for co-enrichment or nearness to the bait. Other partners may have been found.

As to STAT3 (from UniProt P40763 1-770), the binding entry is on record as “binds”.

B1: CABLES1 (protein, UniProt Q8TDN4 1-633)
chain: MAAAAAAATTAACSSGSAGTDAAGASGLQQPPPQPQPQPAAAAPAQPPPEPPRKPRMDPRRRQAALSFLTNISLDGRLPPQDAEWGGGEEGGAAKPGAGGACGARTRFSLLAAAERGGCIALAAPGTPAAGLAAGSGPCLPQPSSLPPLIPGGHATVSGPGVARGFASPLGAGRASGEQWQPPRPAPLAACAQLQLLDGSGAAGQEELEEDDAFISVQVPAAAFLGSGTPGSGSGSRGRLNSFTQGILPIAFSRPTSQNYCSLEQPGQGGSTSAFEQLQRSRRRLISQRSSLETLEDIEENAPLRRCRTLSGSPRPKNFKKIHFIKNMRQHDTRNGRIVLISGRRSFCSIFSVLPYRDSTQVGDLKLDGGRQSTGAVSLKEIIGLEGVELGADGKTVSYTQFLLPTNAFGARRNTIDSTSSFSQFRNLSHRSLSIGRASGTQGSLDTGSDLGDFMDYDPNLLDDPQWPCGKHKRVLIFPSYMTTVIDYVKPSDLKKDMNETFKEKFPHIKLTLSKIRSLKREMRKLAQEDCGLEEPTVAMAFVYFEKLALKGKLNKQNRKLCAGACVLLAAKIGSDLKKHEVKHLIDKLEEKFRLNRRELIAFEFPVLVALEFALHLPEHEVMPHYRRLVQSS
Consider B1, for which the binding entry was “binds”.

(Values after publication PMC10281466.)
